# PubChem BioAssay AID1259405, NCATS | 2018
# Aim: 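Knock-downs that lift recombinant protein yield in hamster ovary cells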 (primary screen)
# Cell system: Chinese hamster CHO-K1 ovary cells with stable secreted eGFP expression
# Reagent: single siRNA against mouse genes, 0.8 pmol siRNA per well (2 µl of 400 nM stock)
# Timing: 3 days
# Measured: 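Per-well intracellular GFP measured by laser scanning cytometry, plus viability from ATP luminescence, each relative to plate median of non-targeting control wells, in %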
# Direction: GFP, % of control: higher = more GFP per well, higher productivity; viability (ATP), % of control: higher = more viable cells (more ATP)
# Rule for the call: 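Called active when intracellular GFP, relative to negative control, is at or above 120%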
# Here is an unselected part of about 50,000 deposited reagents. Of all reagents, about 4,000 (8%) are marked active. 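Mouse siRNA library applied to hamster cells; one well for each siRNA.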 Entries without a mark were called inactive. The numbers tell different reagents against one gene apart.
Target gene,reagent no.,"GFP, % of control","viability (ATP), % of control"
Ctsg,1,96.2,110
Ctsg,2,62,32.4
Ctsg,3,99.5,82.5
Hirip3,1,102,61.6
Hirip3,2,98,69
Hirip3,3,146 (active),132
Vamp5,1,51.7,34
Vamp5,2,91.7,84.3
Vamp5,3,53.2,48.5
Vamp5,4,106,75.2
Vamp5,5,52.5,68.8
Vamp5,6,45.7,76.2
Clec2h,1,138 (active),93.6
Clec2h,2,70.1,69.3
Clec2h,3,71.3,84.8
Bhlhe22,1,67.3,73.8
Bhlhe22,2,69.5,80.3
Bhlhe22,3,98.9,116
Adrb3,1,63.2,62.7
Adrb3,2,80.6,51.8
Adrb3,3,81.2,74.3
Ctrl,1,69.5,122
Ctrl,2,66.6,30.6
Ctrl,3,68.3,67.4
Or4c105,1,103,62.4
Or4c105,2,66,76.8
Or4c105,3,117,88.3
Apoo,1,116,127
Apoo,2,115,85.6
Apoo,3,66,72.4
Ss18,1,41.9,56.6
Ss18,2,78.1,93.5
Ss18,3,55.6,48.5
Or5w19,1,85.4,53.8
Or5w19,2,77.7,51.2
Or5w19,3,74.8,78.6
Stard7,1,76.6,72.3
Stard7,2,37.3,33.6
Stard7,3,65.5,60.5
Cfap184,1,109,87.6
Cfap184,2,73,71.5
Cfap184,3,151 (active),160
Klk1b21,1,132 (active),133
Klk1b21,2,66.4,65.8
Klk1b21,3,73,76.7
Smtn,1,109,78.2
Smtn,2,53.6,75.4
Smtn,3,61.6,78.7
Clic3,1,37.3,58.2
Clic3,2,66.1,71
Clic3,3,89.1,103
Tars3,1,117,113
Tars3,2,42.6,42.4
Tars3,3,71.3,66.1
D830030K20Rik,1,105,119
D830030K20Rik,2,98,129
D830030K20Rik,3,73.5,63.5
Zbtb32,1,94.3,65.1
Zbtb32,2,81.7,96.4
Rpl35,1,39.9,28.8
Rpl35,2,66.9,44.5
Rpl35,3,53.2,56.9
Dgkz,1,59.8,81
Bnip1,1,107,93.7
Bnip1,2,86.4,91.9
Agxt,1,115,91.2
Agxt,2,99.1,120
Agxt,3,103,108
Sec23b,1,104,70.3
Sec23b,2,150 (active),85.9
Sec23b,3,89.9,84.9
AA986860,1,63.4,53.4
AA986860,2,45.7,66.3
AA986860,3,72,90.5
Wnt8b,1,123 (active),74.3
Wnt8b,2,57.3,52.1
Wnt8b,3,70.2,54.2
Ttll4,1,72.2,72
Ttll4,2,74.8,76.1
Pycr3,1,132 (active),75.4
Pycr3,2,86.9,36.2
Pycr3,3,64.6,36.2
Zbtb7c,1,54.9,59.1
Zbtb7c,2,114,101
Zbtb7c,3,6.9,6.21
Or8s5,1,38.3,58.4
Or8s5,2,91.6,89.5
Or8s5,3,101,108
Ctxn1,1,93.7,91.4
Ctxn1,2,103,81.7
Ctxn1,3,150 (active),114
Capn8,1,68.3,72.1
Capn8,2,70.1,72.8
Capn8,3,85.5,69.3
Ilkap,1,92.3,96.9
Ilkap,2,106,88.4
Ilkap,3,63.6,72.9
Col4a6,1,128 (active),95.9
Col4a6,2,86.9,80.3
L3hypdh,1,56.7,59.7
L3hypdh,2,120,85.9
L3hypdh,3,64.3,50.4
Krtap31-2,1,81.6,74.5
Krtap31-2,2,74.9,64.4
Krtap31-2,3,93.8,65.6
Gmppa,1,81.9,105
Gmppa,2,42.4,64.7
Gmppa,3,48.7,64.8
